These are yes or no findings as the source states them, for the method shown. In cells and extracts the contact can be indirect. Some binding calls cover weakened binding; strength is not graded here.
T1: Kibra (Kib) (Drosophila) (UniProt Q9VFG8)
T1 sequence: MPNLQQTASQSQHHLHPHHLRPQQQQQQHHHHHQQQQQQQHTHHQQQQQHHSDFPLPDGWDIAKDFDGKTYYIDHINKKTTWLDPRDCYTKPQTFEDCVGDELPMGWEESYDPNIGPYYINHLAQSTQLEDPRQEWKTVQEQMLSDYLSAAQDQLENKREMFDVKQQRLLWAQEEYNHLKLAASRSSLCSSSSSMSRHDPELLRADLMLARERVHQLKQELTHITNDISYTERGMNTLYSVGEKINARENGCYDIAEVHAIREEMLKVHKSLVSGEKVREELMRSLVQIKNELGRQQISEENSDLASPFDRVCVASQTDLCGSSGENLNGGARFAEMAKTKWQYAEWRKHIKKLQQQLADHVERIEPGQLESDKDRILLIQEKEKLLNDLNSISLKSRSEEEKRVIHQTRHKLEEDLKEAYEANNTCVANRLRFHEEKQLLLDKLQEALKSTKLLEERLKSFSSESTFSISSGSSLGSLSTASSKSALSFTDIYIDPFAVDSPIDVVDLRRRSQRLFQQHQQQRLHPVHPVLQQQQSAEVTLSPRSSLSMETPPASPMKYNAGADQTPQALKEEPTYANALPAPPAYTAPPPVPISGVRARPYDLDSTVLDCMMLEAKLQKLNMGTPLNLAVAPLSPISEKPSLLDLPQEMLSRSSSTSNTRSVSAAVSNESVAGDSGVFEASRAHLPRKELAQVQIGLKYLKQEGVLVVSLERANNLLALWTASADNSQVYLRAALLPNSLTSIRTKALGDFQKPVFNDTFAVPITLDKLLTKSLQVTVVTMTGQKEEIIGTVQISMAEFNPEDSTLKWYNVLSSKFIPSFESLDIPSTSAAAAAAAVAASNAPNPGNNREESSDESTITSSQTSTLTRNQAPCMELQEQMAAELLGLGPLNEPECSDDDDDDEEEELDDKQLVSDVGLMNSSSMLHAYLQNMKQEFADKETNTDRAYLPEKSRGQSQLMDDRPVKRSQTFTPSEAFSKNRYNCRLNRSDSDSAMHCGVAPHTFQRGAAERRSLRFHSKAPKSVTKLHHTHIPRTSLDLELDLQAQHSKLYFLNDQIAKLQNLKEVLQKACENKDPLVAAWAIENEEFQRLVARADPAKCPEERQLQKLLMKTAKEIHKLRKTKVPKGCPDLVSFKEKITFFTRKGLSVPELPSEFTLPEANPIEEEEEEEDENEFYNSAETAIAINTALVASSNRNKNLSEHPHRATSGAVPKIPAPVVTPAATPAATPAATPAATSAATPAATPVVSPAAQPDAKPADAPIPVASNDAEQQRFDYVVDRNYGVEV

By UniProt entry, the sequences of proteins in these tests, tags left out.
UniProt P23696: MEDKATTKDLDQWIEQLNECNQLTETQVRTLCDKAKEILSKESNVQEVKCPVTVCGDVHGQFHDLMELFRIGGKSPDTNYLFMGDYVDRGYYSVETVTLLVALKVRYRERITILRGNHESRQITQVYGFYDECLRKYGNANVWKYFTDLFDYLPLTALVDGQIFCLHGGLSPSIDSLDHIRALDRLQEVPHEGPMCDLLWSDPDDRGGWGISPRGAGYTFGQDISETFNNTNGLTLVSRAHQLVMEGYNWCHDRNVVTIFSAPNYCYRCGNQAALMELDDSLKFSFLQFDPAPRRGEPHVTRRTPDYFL


Key:
Kibra (Kib) (Drosophila) = biological target: T1, Kibra (Kib) (Drosophila); experiment: co-IP; S2 cells transfected with the tagged constructs; lysis in 50 mM Tris pH 7.5, 150 mM NaCl, 1% Triton X-100, 10% glycerol, 1 mM EDTA with phosphatase and protease inhibitors; FLAG-tagged proteins on anti-FLAG M2 agarose 1-2 h at 4 °C, eluted with 3x FLAG peptide; immunoblot (Figures EV3G,H, EV5C-E, 5B-D)
[1] = biological target: Microtubule star (Mts), catalytic subunit of protein phosphatase 2A, wild type (Drosophila) (UniProt P23696); experiment: as above
[2] = biological target: Microtubule star (Mts), catalytic subunit of protein phosphatase 2A, wild type (Drosophila) (UniProt P23696); experiment: co-IP; S2 cells transfected with the tagged constructs, with or without co-expressed Crb^intra, lysed 48 h after transfection; FLAG-tagged proteins purified on FLAG-agarose beads; immunoblot (Figure EV6)

Row | binding [1] | Binder | also measured
1 |  | Twins (Tws), PP2A B regulatory subunit (protein, UniProt P36872 1-499) MGRWGRQSPVLEPPDPQMQTTPPPPTLPPRTFMRQSSITKIGNMLNTAININGAKKPASNGEASWCFSQIKGALDDDVTDADIISCVEFNHDGELLATGDKGGRVVIFQRDPASKAANPRRGEYNVYSTFQSHEPEFDYLKSLEIEEKINKIRWLQQKNPVHFLLSTNDKTVKLWKVSERDKSFGGYNTKEENGLIRDPQNVTALRVPSVKQIPLLVEASPRRTFANAHTYHINSISVNSDQETFLSADDLRINLWHLEVVNQSYNIVDIKPTNMEELTEVITAAEFHPTECNVFVYSSSKGTIRLCDMRSAALCDRHSKQFEEPENPTNRSFFSEIISSISDVKLSNSGRYMISRDYLSIKVWDLHMETKPIETYPVHEYLRAKLCSLYENDCIFDKFECCWNGKDSSIMTGSYNNFFRVFDRNSKKDVTLEASRDIIKPKTVLKPRKVCTGGKRKKDEISVDCLDFNKKILHTAWHPEENIIAVAATNNLFIFQDKF | binding (Kibra (Kib) (Drosophila)): no binding
2 | binds | Kibra (Kib) (protein, UniProt Q9VFG8 1-1288) MPNLQQTASQSQHHLHPHHLRPQQQQQQHHHHHQQQQQQQHTHHQQQQQHHSDFPLPDGWDIAKDFDGKTYYIDHINKKTTWLDPRDCYTKPQTFEDCVGDELPMGWEESYDPNIGPYYINHLAQSTQLEDPRQEWKTVQEQMLSDYLSAAQDQLENKREMFDVKQQRLLWAQEEYNHLKLAASRSSLCSSSSSMSRHDPELLRADLMLARERVHQLKQELTHITNDISYTERGMNTLYSVGEKINARENGCYDIAEVHAIREEMLKVHKSLVSGEKVREELMRSLVQIKNELGRQQISEENSDLASPFDRVCVASQTDLCGSSGENLNGGARFAEMAKTKWQYAEWRKHIKKLQQQLADHVERIEPGQLESDKDRILLIQEKEKLLNDLNSISLKSRSEEEKRVIHQTRHKLEEDLKEAYEANNTCVANRLRFHEEKQLLLDKLQEALKSTKLLEERLKSFSSESTFSISSGSSLGSLSTASSKSALSFTDIYIDPFAVDSPIDVVDLRRRSQRLFQQHQQQRLHPVHPVLQQQQSAEVTLSPRSSLSMETPPASPMKYNAGADQTPQALKEEPTYANALPAPPAYTAPPPVPISGVRARPYDLDSTVLDCMMLEAKLQKLNMGTPLNLAVAPLSPISEKPSLLDLPQEMLSRSSSTSNTRSVSAAVSNESVAGDSGVFEASRAHLPRKELAQVQIGLKYLKQEGVLVVSLERANNLLALWTASADNSQVYLRAALLPNSLTSIRTKALGDFQKPVFNDTFAVPITLDKLLTKSLQVTVVTMTGQKEEIIGTVQISMAEFNPEDSTLKWYNVLSSKFIPSFESLDIPSTSAAAAAAAVAASNAPNPGNNREESSDESTITSSQTSTLTRNQAPCMELQEQMAAELLGLGPLNEPECSDDDDDDEEEELDDKQLVSDVGLMNSSSMLHAYLQNMKQEFADKETNTDRAYLPEKSRGQSQLMDDRPVKRSQTFTPSEAFSKNRYNCRLNRSDSDSAMHCGVAPHTFQRGAAERRSLRFHSKAPKSVTKLHHTHIPRTSLDLELDLQAQHSKLYFLNDQIAKLQNLKEVLQKACENKDPLVAAWAIENEEFQRLVARADPAKCPEERQLQKLLMKTAKEIHKLRKTKVPKGCPDLVSFKEKITFFTRKGLSVPELPSEFTLPEANPIEEEEEEEDENEFYNSAETAIAINTALVASSNRNKNLSEHPHRATSGAVPKIPAPVVTPAATPAATPAATPAATSAATPAATPVVSPAAQPDAKPADAPIPVASNDAEQQRFDYVVDRNYGVEV | 
3 |  | Expanded residues 1-468 (Ex^1-468) (domain or fragment, UniProt Q07436 1-468) MRAFCTVSAPLEVCASSAEQLSPGSRFLALRLLGQQQPKTLYFLVDAKSRVREVYTQTCLHFATQGMLDTELFGLAVLIDGEYMFADPESKLSKYGPKSWRSSHTHGLDANGRPLLELHFRVQFYIESPFMLKDETSRHNYYLQLRHNILQRDLPREQAEQALVFLAGLALQADLGDAPPGTSNSKDDSGEETSASPSNGGRGLSATTTLPKISKRANERMLRLSTYVASTSKRETIPLPPSLPPNGADYYRIEDYLPSGLHTPWARSAMRACHREHLGMATAEAELLYIQQACSLHETINAHTYRMRLAKSEQGSGSAWFVVYAKGIKILGGESTNSSSNPETTTFLWPNITKLSFERKKFEIRSGESRITLYAASDEKNKLLLTLCKDTHQWSMKLAARLKEVSKREEEEAAESQRLHASYACSRSLLLPYKSKNEQRISVISSTSSNTTSGIVSDRVHSEDELEI | binding [2]: binds
4 | no binding | Merlin (Mer) (protein, UniProt Q24564 1-635) MSPFGSKKNRSLSVRVSTFDSELEFKLEPRASGQDLFDLVCRTIGLRESWYFGLQYVDTRSNVSWLKMEKRVRDQRVELHASNNVYVFSFYAKFFPENVSEELIQEITQHLFFLQVKQSILSMDIYCRPEASVLLASYAVHVQYGPYDYETYKDGMLAGGELLPKGVTDQYQMTPEMWEERIKTWYMDHEPMTRDEVEMEYLKIAQDLDMYGVNYFPITNKNKTKLWLGVTSVGLNIYDERDKLTPKTTFQWNEIRHVSFDDKKFTIRLVDAKVSNFIFYSQDLHINKMILDLCKGNHDLYMRRRKPDTMEIQQMKAQAKEEKQRRQIERKKFIREKKLREKAEHERYELEKSMEHLQNEMRMANDALRRSEETKELYFEKSRVNEEQMQLTECKANHFKTEMDRLRERQMKIEREKHDLEKKIRDADFYVHQLTVENDKREAETEKLRKELICAKMAEREATARLLEFLNSGRKSSTDSLLTASSVSHAANTASSMAAISTPSLITSSSTNDLETAGGAELTTHSSHYLVQGDNSSGISDDFEPKEFILTDNEMEQITNEMERNHLDYLRNSKQVQSQLQTLRSEIAPHKIEENQSNLDILSEAQIKAGENKYSTLKKLKSGSTKARVAFFEEL | 

Source: PMC13482807
